# Measured values taken from US20240343761A1 (priority 2021, published 2024).
# HELM strings list residues between dots; [ac] is acetyl, [am] amide, other brackets name non-standard units. Bridge positions count the residues as written; N and C are the ends. Square brackets hold non-standard residues; d marks the D form. Ends that are not written are not given here. Oic = O=C(O)[C@@H]1C[C@@H]2CCCC[C@@H]2N1; pGlu = O=C1CC[C@@H](C(=O)O)N1; Nle = CCCC[C@H](N)C(=O)O
# Assay: general procedure: Fmoc solid-phase peptide synthesis; Wang resin (capacity 0.4-0.7 mmol/g); HATU/DIPEA; DEPBT/DIPEA for macrolactamization
# Settings: whole synthesis
# [1] = UPLC/MS (Waters Acquity UPLC CSH C18), scale of the general procedure 0.1 mmol
# [2] = UPLC/MS (Waters Acquity UPLC CSH C18), scale 0.2 mmol
# [3] = UPLC/MS (Waters Acquity UPLC CSH C18), scale 0.1 mmol
Substance,final purity (method not given) [1],isolated mass (scale 0.1 mmol),other results
Ac-K-F-R-R-Q-R-P-R-L-[E-H-K-K]-P-Nle-P-cypY,94%,2.4 mg,–
Pyr-R-R-S-c[E-P-L-H-K]-R-V-P-F-P,–,–,final purity (method not given) [2]: 100%; isolated mass (scale 0.2 mmol): 8.9 mg
Ac-K-F-R-R-Q-R-P-R-L-[E-H-K-K]-P-Nle-P-B2,100%,2.8 mg,–
[Nle]PLHKRVEFP (lactam 5-8),–,10.1 mg,final purity (method not given) [3]: 100%
"PEPTIDE1{[Pyr].R.P.R.L.S.H.K.[D-AllylGly].P.[Nle].P.[AllylGly]}$PEPTIDE1,PEPTIDE1,9:R3-13:R3$$$V2.0",100%,4.8 mg,–
KRRE[Nle]PLHSRV[Oic]FP (lactam 1-4),–,–,final purity (method not given) [2]: 100%; isolated mass (scale 0.2 mmol): 5.2 mg
Ac-K-F-R-R-Q-R-P-R-L-[E-H-K-K]-P-Nle-P-TyrOBn,96%,0.9 mg,–
"PEPTIDE1{[Pyr].R.P.R.L.S.H.K.[AllylGly].P.[Nle].P.[D-AllylGly]}$PEPTIDE1,PEPTIDE1,9:R3-13:R3$$$V2.0",100%,4.7 mg,–
"PEPTIDE1{[ac].K.F.R.R.Q.R.P.R.L.E.H.K.K.P.[Nle].P.[dcypTyrOBn]}$PEPTIDE1,PEPTIDE1,11:R3-14:R3$$$V2.0",95%,5.1 mg,–
Ac-K-F-R-R-Q-R-P-R-L-[E-H-K-K]-P-Nle-P-B1,100%,3.7 mg,–
Ac-c[E-N-T-N-(8-aminooctanoic)-R-P-R-L-K]-H-K-G-P-Nle-P-F,100%,1 mg,–
"PEPTIDE1{[Pyr].R.K.R.L.S.D.K.G.P.[Nle].P.F}$PEPTIDE1,PEPTIDE1,3:R3-7:R3$$$V2.0",100%,4 mg,–
"PEPTIDE1{[Pyr].[AllylGly].P.R.L.S.[AllylGly].K.G.P.[Nle].P.F}$PEPTIDE1,PEPTIDE1,2:R3-7:R3$$$V2.0",100%,6.1 mg,–
"PEPTIDE1{[4BrBz].R.R.S.E.P.L.H.K.R.V.P.[4BrF].P}$PEPTIDE1,PEPTIDE1,5:R3-9:R3$$$V2.0",–,4.1 mg,final purity (method not given) [3]: 100%
K[Nle]PLESRVPFP (lactam 1-5),–,8.9 mg,final purity (method not given) [3]: 98.2%
Ac-K-F-R-R-Q-R-P-R-L-[E-H-K-K]-P-Nle-P-B3,100%,6.7 mg,–
Pyr-R-hR-S-[E-P-L-H-K]-R-V-P-F-P,–,–,final purity (method not given) [2]: 98%; isolated mass (scale 0.2 mmol): 20 mg
"PEPTIDE1{[AllylGly].R.L.S.[AllylGly].[5Ava].P.[Nle]}$PEPTIDE1,PEPTIDE1,1:R3-5:R3$$$V2.0",96%,2 mg,final LC-MS purity [1]: 93%
"PEPTIDE1{[AllylGly].R.L.S.[AllylGly].K}$PEPTIDE1,PEPTIDE1,1:R3-5:R3$$$V2.0",100%,2.4 mg,–

Substance,final purity (method not given) [1],isolated mass (scale 0.1 mmol),other results
E[Nle]PLKSRVPFP (lactam 1-5),–,5.6 mg,final purity (method not given) [3]: 97.0%
Ac-K-F-R-R-Q-R-P-R-L-[E-H-K-K]-P-Nle-P-cypTyrOBn,100%,3 mg,–
[pGlu]RRSEPLHKRV[Oic]FP (lactam 5-9),–,–,final purity (method not given) [2]: 100%; isolated mass (scale 0.2 mmol): 7.2 mg
NH-c[Rx-R-L-S-AIH]-K-G-P-Nle-P-F,98%,0.1 mg,–
[Nle]PKHSREPFP (lactam 3-7),–,5.1 mg,final purity (method not given) [3]: 100%
KRRE[Nle]PLHSRVPFP (lactam 1-4),–,–,final purity (method not given) [2]: 100%; isolated mass (scale 0.2 mmol): 8.6 mg
[Nle]PLEHSRKVPFP (lactam 4-8),–,4.1 mg,final purity (method not given) [3]: 100%
[pGlu]RRE[Nle]PKHSRVPFP (lactam 4-7),–,–,final purity (method not given) [2]: 100%; isolated mass (scale 0.2 mmol): 7.3 mg
[Nle]PLHERVKFP (lactam 5-8),–,8.9 mg,final purity (method not given) [3]: 99%
"PEPTIDE1{[Pyr].[AllylGly].P.R.[AllylGly].S.H.K.G.P.[Nle].P.F}$PEPTIDE1,PEPTIDE1,2:R3-5:R3$$$V2.0",100%,18.5 mg,–
"PEPTIDE1{[AllylGly].R.L.S.[AllylGly].K.G.P.A}$PEPTIDE1,PEPTIDE1,1:R3-5:R3$$$V2.0",100%,0.8 mg,–
[Nle]PLEHRKVPFP (lactam 4-7),–,7.3 mg,final purity (method not given) [3]: 100%
Ac-K-F-R-R-Q-R-P-R-L-[E-H-K-K]-P-Nle-P-B4,100%,3.9 mg,–
[Nle]PEHSRKPFP (lactam 3-7),–,7.6 mg,final purity (method not given) [3]: 98.6%
"PEPTIDE1{[Pyr].R.R.S.K.P.L.H.E.R.V.P.F.P}$PEPTIDE1,PEPTIDE1,5:R3-9:R3$$$V2.0",–,–,final purity (method not given) [2]: 100%; isolated mass (scale 0.2 mmol): 10.7 mg
Pyr-R-R-S-[E-P-L-H-K]-R-V-P-4BrF-P,–,–,final purity (method not given) [2]: 100%; isolated mass (scale 0.2 mmol): 31 mg
"PEPTIDE1{[Pyr].R.R.K.[Nle].P.E.H.S.R.V.P.F.P}$PEPTIDE1,PEPTIDE1,4:R3-7:R3$$$V2.0",–,–,final purity (method not given) [2]: 96.7%; isolated mass (scale 0.2 mmol): 9.0 mg
"PEPTIDE1{[AllylGly].R.L.S.[AllylGly].G.P.[Nle]}$PEPTIDE1,PEPTIDE1,1:R3-5:R3$$$V2.0",100%,1.6 mg,–
Pyr-R-R-S-[E-P-L-H-K]-R-V-P-F-Hyp(OBn),–,–,final purity (method not given) [2]: 98%; isolated mass (scale 0.2 mmol): 3.4 mg
